The record followed here is publication PMC3893189.

The chains behind the UniProt entries cited, without tags or fusion partners. Where a name states a change or a piece, a line headed by the entry shows the natural chain unless it says otherwise.
UniProt Q9RWH8: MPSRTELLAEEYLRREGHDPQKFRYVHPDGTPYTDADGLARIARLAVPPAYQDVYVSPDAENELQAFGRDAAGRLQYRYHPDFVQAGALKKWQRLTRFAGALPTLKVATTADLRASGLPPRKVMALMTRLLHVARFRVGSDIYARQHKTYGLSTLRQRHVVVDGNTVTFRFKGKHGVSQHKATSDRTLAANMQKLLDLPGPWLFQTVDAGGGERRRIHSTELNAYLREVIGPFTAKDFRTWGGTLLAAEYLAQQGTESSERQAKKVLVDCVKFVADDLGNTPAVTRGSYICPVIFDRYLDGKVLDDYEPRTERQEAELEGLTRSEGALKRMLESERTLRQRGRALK

No constants are given. Whether binding was seen depends on the method and setting. Binding seen in cells or lysates may run through a third protein. Binding calls can cover weak binding; strength is not graded here. Where a sequence is shown, tags or fusion partners need not be part of it.

This experiment concerns the target T1, His-PprA (recombinant PprA from pETpprA) (Deinococcus radiodurans R1) (UniProt O32504).
T1 sequence: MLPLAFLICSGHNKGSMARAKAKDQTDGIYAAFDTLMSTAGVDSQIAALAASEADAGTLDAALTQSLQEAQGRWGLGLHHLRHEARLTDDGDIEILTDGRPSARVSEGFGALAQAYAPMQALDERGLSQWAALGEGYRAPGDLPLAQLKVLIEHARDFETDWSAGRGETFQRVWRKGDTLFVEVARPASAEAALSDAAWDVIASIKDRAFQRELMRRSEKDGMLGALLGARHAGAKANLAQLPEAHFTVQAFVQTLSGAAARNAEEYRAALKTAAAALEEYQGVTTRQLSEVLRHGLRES
The experiment in a line: co-IP; cell free extracts of E. coli with His-PprA and His-DraTopoIB mixed, 4°C, 3 h; precipitated with PprA specific antibody and Protein G agarose in binding buffer (140 mM NaCl, 8 mM sodium phosphate, 2 mM potassium phosphate, 10 mM KCl, pH 7.4); eluted with 500 mM NaCl; blot with anti-His antibodies.

For the substance “His-DraTopoIB (recombinant D. radiodurans topoisomerase IB from pETtopoIB) (from UniProt Q9RWH8) (enzyme)”, the binding result is recorded as “binds”.
